Test results published in the supplement of paper PMC8728848.
Some of the results follow.

Key:
Assay in all cases: glycan array binding signal (z-score within array); higher = stronger binding
Details in all cases: glycan notation: IUPAC condensed, linker removed
[1] = molecular target: Gal(b1-3)[GlcNAc(b1-6)]GalNAc
Method in brief: (§1)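 The binding signal is a Z-score computed within each array. Data were drawn from 3228 arrays in the Consortium for Functional Glycomics database, restricted to those with a known protein sequence. Scores were averaged over arrays of the same protein sequence at different concentrations or buffers, and over linkers, and negative values can be taken as non-binding.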

[2] = molecular target: Gal(b1-3)[Neu5Ac(a2-6)]GalNAc
Method in brief: as §1

[3] = molecular target: Gal(b1-3)[Neu5Ac(a2-6)]GlcNAc(b1-6)Gal(b1-4)Glc
Method in brief: as §1

[4] = molecular target: Gal(b1-3)[Neu5Ac(b2-6)]GalNAc
Method in brief: as §1

[5] = molecular target: Gal(b1-4)GalNAc(a1-3)[Fuc(a1-2)]Gal(b1-4)GlcNAc
Method in brief: as §1

[6] = molecular target: Gal(b1-4)GalNAc(b1-3)[Fuc(a1-2)]Gal(b1-4)GlcNAc
Method in brief: as §1

Gal(b1-4)Glc = molecular target: Gal(b1-4)Glc
Method in brief: as §1

Gal(b1-4)Glc6S = molecular target: Gal(b1-4)Glc6S
Method in brief: as §1

Gal(b1-4)GlcNAc = molecular target: Gal(b1-4)GlcNAc
Method in brief: as §1

[7] = molecular target: Gal(b1-4)GlcNAc(a1-6)Gal(b1-4)GlcNAc
Method in brief: as §1

[8] = molecular target: Gal(b1-4)GlcNAc(b1-2)Man(a1-3)[Gal(b1-4)GlcNAc(b1-2)Man(a1-6)]Man(b1-4)GlcNAc(b1-4)GlcNAc
Method in brief: as §1

[9] = molecular target: Gal(b1-4)GlcNAc(b1-3)Gal(b1-3)GlcNAc
Method in brief: as §1

[10] = molecular target: Gal(b1-4)GlcNAc(b1-3)Gal(b1-4)Glc
Method in brief: as §1

[11] = molecular target: Gal(b1-4)GlcNAc(b1-3)Gal(b1-4)GlcNAc
Method in brief: as §1

[12] = molecular target: Gal(b1-4)GlcNAc(b1-3)Gal(b1-4)GlcNAc(b1-3)Gal(b1-4)GlcNAc
Method in brief: as §1

[13] = molecular target: Gal(b1-4)GlcNAc(b1-3)Gal(b1-4)[Fuc(a1-3)]GlcNAc(b1-3)Gal(b1-4)[Fuc(a1-3)]GlcNAc
Method in brief: as §1

[14] = molecular target: Gal(b1-4)GlcNAc(b1-3)GalNAc
Method in brief: as §1

[15] = molecular target: Gal(b1-4)GlcNAc(b1-3)[Gal(b1-4)GlcNAc(b1-6)]Gal(b1-4)GlcNAc
Method in brief: as §1

[16] = molecular target: Gal(b1-4)GlcNAc(b1-3)[GlcNAc(b1-6)]Gal(b1-4)GlcNAc
Method in brief: as §1

[17] = molecular target: Gal(b1-4)GlcNAc(b1-6)Gal(b1-4)GlcNAc
Method in brief: as §1

[18] = molecular target: Gal(b1-4)GlcNAc(b1-6)Gal(b1-4)GlcNAc(b1-6)GalNAc
Method in brief: as §1

[19] = molecular target: Gal(b1-4)GlcNAc(b1-6)GalNAc
Method in brief: as §1

[20] = molecular target: Gal(b1-4)GlcNAc(b1-6)[Gal(b1-3)]GalNAc
Method in brief: as §1

Gal3S(b1-3)GalNAc = molecular target: Gal3S(b1-3)GalNAc
Method in brief: as §1

Gal3S(b1-3)GlcNAc = molecular target: Gal3S(b1-3)GlcNAc
Method in brief: as §1

[21] = molecular target: Gal3S(b1-3)[Fuc(a1-4)]GlcNAc
Method in brief: as §1

Gal3S(b1-4)Glc = molecular target: Gal3S(b1-4)Glc
Method in brief: as §1

Gal3S(b1-4)Glc6S = molecular target: Gal3S(b1-4)Glc6S
Method in brief: as §1

Gal3S(b1-4)GlcNAc = molecular target: Gal3S(b1-4)GlcNAc
Method in brief: as §1

Gal3S(b1-4)GlcNAc6S = molecular target: Gal3S(b1-4)GlcNAc6S
Method in brief: as §1

[22] = molecular target: Gal3S(b1-4)[Fuc(a1-3)]Glc
Method in brief: as §1

Gal3S4S(b1-4)GlcNAc = molecular target: Gal3S4S(b1-4)GlcNAc
Method in brief: as §1

Gal3S6S(b1-4)GlcNAc = molecular target: Gal3S6S(b1-4)GlcNAc
Method in brief: as §1

Gal3S6S(b1-4)GlcNAc6S = molecular target: Gal3S6S(b1-4)GlcNAc6S
Method in brief: as §1

Gal4S(b1-4)GlcNAc = molecular target: Gal4S(b1-4)GlcNAc
Method in brief: as §1

Gal4S6S(b1-4)GlcNAc = molecular target: Gal4S6S(b1-4)GlcNAc
Method in brief: as §1

Gal6S(b1-4)Glc = molecular target: Gal6S(b1-4)Glc
Method in brief: as §1

B1: RfpC (Mycobacterium tuberculosum), O07747 (protein)
chain: MHHHHHHSSGRENLYFQGHMASKSAMAAGLVTASMSLSTAVAHAGPSPNWDAVAQCESGGNWAANTGNGKYGGLQFKPATWAAFGGVGNPAAASREQQIAVANRVLAEQGLDAWPTCGAASGLPIALWSKPAQGIKGS
glycan array binding signal (z-score) [1]: -0.747 | glycan array binding signal (z-score) [2]: -0.18 | glycan array binding signal (z-score) [3]: 0.823 | glycan array binding signal (z-score) [4]: 0.016 | glycan array binding signal (z-score) [5]: 1.08 | glycan array binding signal (z-score) [6]: 3.48 | glycan array binding signal (z-score) (Gal(b1-4)Glc): -0.11 | glycan array binding signal (z-score) (Gal(b1-4)Glc6S): 4.01 | glycan array binding signal (z-score) (Gal(b1-4)GlcNAc): 0.012 | glycan array binding signal (z-score) [7]: -0.005 | glycan array binding signal (z-score) [8]: 0.464 | glycan array binding signal (z-score) [9]: 0.174 | glycan array binding signal (z-score) [10]: 0.434 | glycan array binding signal (z-score) [11]: -0.68 | glycan array binding signal (z-score) [12]: 2.9 | glycan array binding signal (z-score) [13]: -0.25 | glycan array binding signal (z-score) [14]: -0.607 | glycan array binding signal (z-score) [15]: 0.698 | glycan array binding signal (z-score) [16]: 0.313 | glycan array binding signal (z-score) [17]: 0.164 | glycan array binding signal (z-score) [18]: -0.701 | glycan array binding signal (z-score) [19]: -0.822 | glycan array binding signal (z-score) [20]: -0.17 | glycan array binding signal (z-score) (Gal3S(b1-3)GalNAc): 0.079 | glycan array binding signal (z-score) (Gal3S(b1-3)GlcNAc): 0.156 | glycan array binding signal (z-score) [21]: -0.235 | glycan array binding signal (z-score) (Gal3S(b1-4)Glc): 1.18 | glycan array binding signal (z-score) (Gal3S(b1-4)Glc6S): -0.77 | glycan array binding signal (z-score) (Gal3S(b1-4)GlcNAc): 0.412 | glycan array binding signal (z-score) (Gal3S(b1-4)GlcNAc6S): 0.243 | glycan array binding signal (z-score) [22]: -0.781 | glycan array binding signal (z-score) (Gal3S4S(b1-4)GlcNAc): 0.32 | glycan array binding signal (z-score) (Gal3S6S(b1-4)GlcNAc): -1.36 | glycan array binding signal (z-score) (Gal3S6S(b1-4)GlcNAc6S): 1.22 | glycan array binding signal (z-score) (Gal4S(b1-4)GlcNAc): 0.815 | glycan array binding signal (z-score) (Gal4S6S(b1-4)GlcNAc): 0.323 | glycan array binding signal (z-score) (Gal6S(b1-4)Glc): -0.902
